Data published in PubChem BioAssay AID330 (DTP/NCI, 2004).
The list is a part of this screen's results and no random one: it gathers tests that were run many times, whatever their T/C, doses with no T/C, and many T/C values between a quarter and a half above the control. Other doses and runs of a compound stand elsewhere. T/C: endpoint of the treated group in % of that of the vehicle group. Some doses have a count of surviving animals in place of a T/C: the source holds a T/C of zero for them, seemingly a mark for toxic or unscored doses. Some survivor counts are full or nearly so, which does not show that the dose was tolerated: the source hardly ever lists a survival T/C far under the control, and the zero likely stands for such cases as well. Survivors were counted at the toxicity check, usually on the fifth day, unless a day is given; later deaths do not show. Schedules are NCI's codes, taken here to give the interval after Q, in days (D) or hours (H), and the number of doses after X. Some doses were run more than once; the values are given in rising order. Where survival is the endpoint, the PubChem record calls one and a half times the control and up active, and a quarter to a half above the control has no call in these data; cut-offs in other NCI protocols can differ. Some T/C values are followed by the survivors on the day toxicity was checked, most often the fifth; without a count, all were alive then.

Test system: P388 leukemia ip, CD2F1 mice, survival T/C
Assay: NCI In Vivo Anticancer Drug Screen. Data for tumor model P388 Leukemia (intraperitoneal) in CD2F1 (CDF1) mice
Settings: T/C endpoint: median survival time, higher T/C = longer survival
[1] = dose: 50.0 mg/kg/injection, schedule: Q01DX005 (ip), vehicle: saline with Tween-80
[2] = dose: 100.0 mg/kg/injection, schedule: Q01DX005 (ip), vehicle: saline with Tween-80
[3] = dose: 200.0 mg/kg/injection, schedule: Q01DX005 (ip), vehicle: saline with Tween-80
[4] = dose: 100.0 mg/kg/injection, schedule: Q01DX009 (ip), vehicle: saline with Tween-80
[5] = dose: 200.0 mg/kg/injection, schedule: Q01DX009 (ip), vehicle: saline with Tween-80
[6] = dose: 50.0 mg/kg/injection, schedule: Q01DX009 (ip), vehicle: Klucel (hydroxypropylcellulose) (HPC)
[7] = dose: 200.0 mg/kg/injection, schedule: Q01DX009 (ip), vehicle: Klucel (hydroxypropylcellulose) (HPC)
[8] = dose: 400.0 mg/kg/injection, schedule: Q01DX005 (ip), vehicle: saline with Tween-80
[9] = dose: 240.0 mg/kg/injection, schedule: Q01DX005 (ip), vehicle: saline

CN1CCN(c2c3ccccc3nc3ccccc23)CC1
survivor count (dose: 100.0 mg/kg/injection, schedule: Q04DX003 (ip), vehicle: saline): 4 of 6 | survivor count (dose: 200.0 mg/kg/injection, schedule: Q04DX003 (ip), vehicle: saline): 0 of 6 | survivor count (dose: 400.0 mg/kg/injection, schedule: Q04DX003 (ip), vehicle: saline): 0 of 6

C=C1C(=O)OC2C(OC(C)=O)C(C(=O)OC)CC(O)C/C(CO)=C\C(OC(=O)/C(C)=C/C)C12 (stereo unspecified)
survivor count (dose: 32.0 mg/kg/injection, schedule: Q01DX009 (ip), vehicle: Klucel (hydroxypropylcellulose) (HPC)): 2 of 6

CC(=O)[C@]1(O)Cc2c(O)c3c(c(O)c2[C@@H](OC2CC(N)C(O)C(C)O2)C1)C(=O)c1c(OCC(C)C)cccc1C3=O (stereo partly specified)
T/C (dose: 12.5 mg/kg/injection, schedule: Q04DX003 (ip), vehicle: water): 128 % of control | T/C (dose: 25.0 mg/kg/injection, schedule: Q04DX003 (ip), vehicle: water): 126 % of control

N=C(N)S(=O)O
T/C (dose: 100.0 mg/kg/injection, schedule: Q01DX009 (ip), vehicle: saline): 126 % of control

CN(CCCN(C)N=Nc1ccccc1C(=O)O)N=Nc1ccccc1C(=O)O
survivor count (dose: 400.0 mg/kg/injection, schedule: Q01DX009 (ip), vehicle: saline with Tween-80): 6 of 6

S=C(NCc1ccccc1)NNc1nnc(-c2ccccc2)c(-c2ccccc2)n1
survivor count [1]: 6 of 6 | survivor count [2]: 5 of 6 | survivor count [3]: 6 of 6

COc1cccc2c1C(=O)c1c(O)c3c(c(O)c1C2=O)CC(O)(C(O)CO)CC3OC1CC(N2CCOCC2C#N)C(O)C(C)O1 (stereo unspecified)
T/C (dose: 0.1 mg/kg/injection, schedule: Q04DX003 (ip), vehicle: water): 141 % of control | T/C (dose: 0.4 mg/kg/injection, schedule: Q04DX003 (ip), vehicle: water): 130 % of control | survivor count (dose: 1.6 mg/kg/injection, schedule: Q04DX003 (ip), vehicle: water): 1 of 6 on day 9 | T/C (dose: 100.0 micrograms/kg/injection, schedule: Q04DX003 (ip), vehicle: water): 128 % of control

C(=C\c1ccncc1)/c1ccncc1
survivor count (dose: 400.0 mg/kg/injection, schedule: Q01DX009 (ip), vehicle: Klucel (hydroxypropylcellulose) (HPC)): 3 of 6

[CH3][Ga][CH3].[CH3][Ga][CH3].[CH3][Ga][CH3].[CH3][Ga][CH3].[OH3+].[OH3+].[OH3+].[OH3+]
survivor count (dose: 20.0 mg/kg/injection, schedule: Q04DX003 (ip), vehicle: saline with Tween-80): 0 of 6 | survivor count (dose: 100.0 mg/kg/injection, schedule: Q04DX003 (ip), vehicle: saline sonified): 0 of 6 | survivor count (dose: 200.0 mg/kg/injection, schedule: Q04DX003 (ip), vehicle: saline sonified): 0 of 6 | survivor count (dose: 400.0 mg/kg/injection, schedule: Q04DX003 (ip), vehicle: saline sonified): 0 of 6

O=C/C=C/n1ccccc1=S
survivor count (dose: 40.0 mg/kg/injection, schedule: Q01DX001 (ip), vehicle: Klucel (hydroxypropylcellulose) (HPC)): 3 of 6 | survivor count (dose: 80.0 mg/kg/injection, schedule: Q01DX001 (ip), vehicle: Klucel (hydroxypropylcellulose) (HPC)): 0 of 6 | survivor count (dose: 160.0 mg/kg/injection, schedule: Q01DX001 (ip), vehicle: Klucel (hydroxypropylcellulose) (HPC)): 3 of 6 | survivor count (dose: 320.0 mg/kg/injection, schedule: Q01DX001 (ip), vehicle: Klucel (hydroxypropylcellulose) (HPC)): 0 of 6

Nc1ccc(C(OC(=O)c2cc3ccccc3c(Cc3c(O)c(C(=O)OC(c4ccc(N)cc4)(c4ccc(N)cc4)c4ccc(N)cc4)cc4ccccc34)c2O)(c2ccc(N)cc2)c2ccc(N)cc2)cc1
T/C (dose: 12.5 mg/kg/injection, schedule: Q01DX009 (ip), vehicle: saline with Tween-80): 140 % of control | survivor count (dose: 25.0 mg/kg/injection, schedule: Q01DX009 (ip), vehicle: saline with Tween-80): 6 of 6 | survivor count (dose: 50.0 mg/kg/injection, schedule: Q01DX009 (ip), vehicle: saline with Tween-80): 2 of 6 | survivor count [4]: 1 of 6 | survivor count [5]: 0 of 6

CC(=O)/C(=N/O)C(C)=NCc1ccccc1
survivor count (dose: 25.0 mg/kg/injection, schedule: Q01DX009 (ip), vehicle: Klucel (hydroxypropylcellulose) (HPC)): 6 of 6 | survivor count [6]: 6 of 6

CCOC(=O)Nc1cc(OC)cc2ccc(C)nc12
survivor count (dose: 25.0 mg/kg/injection, schedule: Q01DX009 (ip), vehicle: other): 6 of 6

CCN(CC)CCOc1cccc2c1C(=O)c1c(O)cccc1C2=O
T/C [4]: 140 % of control | survivor count [5]: 4 of 6

Nc1ncnc2ccccc12
survivor count [7]: 3 of 6

COC(=O)c1ccccc1SSCCN
survivor count [2]: 4 of 5 | survivor count [3]: 0 of 5

N#CC(Cc1ccccc1)c1ccccc1 (stereo unspecified)
survivor count (dose: 200.0 mg/kg/injection, schedule: Q01DX009 (ip), vehicle: distilled water + Tween-80): 4 of 6

CCOC(=O)N1CCN(C(=S)NNC(C)c2cc3ccccc3cn2)CC1 (stereo unspecified)
survivor count (dose: 25.0 mg/kg/injection, schedule: Q01DX005 (ip), vehicle: saline with Tween-80): 6 of 6 | survivor count [1]: 0 of 6 | survivor count [2]: 0 of 6 | survivor count [3]: 0 of 6

CCn1c(=O)c2[nH]c(Br)nc2n(CC)c1=O
T/C [6]: 125 % of control | T/C (dose: 100.0 mg/kg/injection, schedule: Q01DX009 (ip), vehicle: Klucel (hydroxypropylcellulose) (HPC)): 132 % of control [5 of 6 alive] | survivor count [7]: 0 of 6

O=S(=O)(Nc1ncccn1)c1ccc(NCc2c3ccccc3nc3ccccc23)cc1
T/C (dose: 200.0 mg/kg/injection, schedule: Q04DX002 (ip), vehicle: Klucel (hydroxypropylcellulose) (HPC)): 135 % of control

CCC1SCC(=O)N1c1nncs1 (stereo unspecified)
T/C [3]: 141 % of control | survivor count [8]: 3 of 6

CCCCn1cnc2c(=S)nc[nH]c21
survivor count [8]: 1 of 6

C/C(=C\N1CCN(c2ccc(Cl)cc2)C(C)C1)C(=O)c1ccccc1 (stereo unspecified)
survivor count (dose: 400.0 mg/kg/injection, schedule: Q04DX003 (ip), vehicle: saline with Tween-80): 6 of 6

COC(=O)/C=C(\C(=O)OC)C1=C(N2CCCC2)CC(C)(C)CC1=O
survivor count (dose: 50.0 mg/kg/injection, schedule: Q01DX005 (ip), vehicle: Klucel (hydroxypropylcellulose) (HPC)): 6 of 6

CCCCCCC(=O)/C=C/c1ccc(OC(=O)c2ccc(Cl)cc2)cc1
survivor count (dose: 50.0 mg/kg/injection, schedule: Q01DX009 (ip), vehicle: saline): 6 of 6

CCN(CC)C1=CC(=O)OC1OC (stereo unspecified)
survivor count [9]: 0 of 6

c1ccc(C[N+]23CCC(CC2)C3c2ccccc2)cc1 (stereo unspecified)
survivor count (dose: 30.0 mg/kg/injection, schedule: Q01DX005 (ip), vehicle: saline): 0 of 6 | survivor count (dose: 60.0 mg/kg/injection, schedule: Q01DX005 (ip), vehicle: saline): 0 of 6 | survivor count (dose: 120.0 mg/kg/injection, schedule: Q01DX005 (ip), vehicle: saline): 0 of 6 | survivor count [9]: 0 of 6

COc1c(C=O)c2c(c(OC)c1OC)-c1ccc(OC)c(=O)cc1[C@@H](NC(C)=O)CC2
T/C (dose: 0.39 mg/kg/injection, schedule: Q01DX009 (ip), vehicle: Klucel (hydroxypropylcellulose) (HPC)): 149 % of control | T/C (dose: 0.78 mg/kg/injection, schedule: Q01DX009 (ip), vehicle: Klucel (hydroxypropylcellulose) (HPC)): 149 % of control

Cc1ccc(Cl)c2ccccc12
T/C [5]: 130 % of control

CCOC(=O)C1Sc2c(c(=O)n(C)c3ccccc23)C1=O (stereo unspecified)
survivor count (dose: 400.0 mg/kg/injection, schedule: Q01DX005 (ip), vehicle: Klucel (hydroxypropylcellulose) (HPC)): 2 of 6 and 3 of 6
